Laboratory results as given in paper PMC6981728, “The Mitochondrial Small Heat Shock Protein HSP22 from Pea is a Thermosoluble Chaperone Prone to Co-Precipitate with Unfolding Client Proteins” (International Journal of Molecular Sciences, 2019).
These are yes or no findings as the source states them, for the method shown. Some entries that bind do so weakly or less than the wild type.

T1: malate dehydrogenase from porcine heart (porcine) (UniProt P00346)
T1 sequence: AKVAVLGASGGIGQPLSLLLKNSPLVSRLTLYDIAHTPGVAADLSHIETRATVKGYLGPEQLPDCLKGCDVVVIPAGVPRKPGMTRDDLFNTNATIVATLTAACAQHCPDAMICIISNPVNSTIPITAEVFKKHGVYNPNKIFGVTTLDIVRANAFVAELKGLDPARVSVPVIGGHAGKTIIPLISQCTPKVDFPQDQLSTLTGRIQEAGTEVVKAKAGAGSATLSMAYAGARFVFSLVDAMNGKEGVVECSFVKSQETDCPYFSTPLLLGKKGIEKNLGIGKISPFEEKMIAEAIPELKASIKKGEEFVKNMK


Assays:
[1] = target: native HSP22 of pea seed mitochondria (pea (endogenous in pea seed mitochondria)) (UniProt P46254); assay: SEC; pea seed mitochondrial soluble proteins (7 mg) heated 20 min at 42 °C, centrifuged, separated on the column kept at 42 °C; fractions analysed by Western blot with the anti-HSP22 Cterm antibody
[2] = target: recombinant HSP22 (HSP22rec), mature mitochondrial small heat shock protein HSP22 from pea (pea) (UniProt P46254); assay: SEC; purified HSP22rec at 42 °C; sample heated 20 min at 42 °C and centrifuged before loading; same column and buffer, column kept at 42 °C; calibration at 42 °C; both purified
[3] = target: T1, malate dehydrogenase from porcine heart (porcine); assay: co-sedimentation; heat aggregation assay with purified proteins: 8 to 25 µg of proteins in 50 µL MOPS 50 mM pH 7.5, DTT 1 mM, EDTA 1 mM, heated 20 min at 50 °C, 15 min on ice, centrifuged 30 min at 20,000 g; supernatants and pellets by SDS-PAGE; 1:1 mass ratio or molar ratios up to 9:1; both purified

binding [1] | binding [2] | binding [3] | Binder
binds |  |  | native HSP22 of pea seed mitochondria (natural protein, UniProt P46254 32-202, looked up, mitochondrial small heat shock protein HSP22 of pea, native protein in the soluble (matrix) extract of mitochondria from 22 h imbibed pea seeds; Detected by Western blot with anti-HSP22 peptide antibodies; source: endogenous, soluble protein extract of pea seed mitochondria) FNTNAMRQYDQHSDDRNVDVYRHSFPRTRRDDLLLSDVFDPFSPPRSLSQVLNMVDLLTDNPVLSAASRRGWDARETEDALFLRLDMPGLGKEDVKISVEQNTLTIKGEEGAKESEEKEKSGRRFSSRIDLPEKLYKIDVIKAEMKNGVLKVTVPKMKEEERNNVINVKVD
 | no binding (condition: at 42 °C) | binds | recombinant HSP22 (HSP22rec), mature mitochondrial small heat shock protein HSP22 from pea (natural protein, UniProt P46254 32-202, looked up, mature HSP22 of pea, amplified from a cDNA encoding the HSP22 precursor (UniProtKB P46254); 19.5 kDa and 170 residues stated; Cloned by NdeI/BamHI into pET3a, so an added initiator methionine is likely (surmise); No tag is mentioned; source: E. coli B834 pLys (pET3a, pET-HSP22), purified (anion exchange HitrapQ, two SEC steps on Superdex 200); also unpurified in soluble extract of the …) FNTNAMRQYDQHSDDRNVDVYRHSFPRTRRDDLLLSDVFDPFSPPRSLSQVLNMVDLLTDNPVLSAASRRGWDARETEDALFLRLDMPGLGKEDVKISVEQNTLTIKGEEGAKESEEKEKSGRRFSSRIDLPEKLYKIDVIKAEMKNGVLKVTVPKMKEEERNNVINVKVD
